Measurements taken from publication PMC11053914 (Viruses, 2024).
Results are given in words; binding and its absence hold for the method and conditions named. Binding seen in cells or lysates may run through a third protein. Some entries that bind do so weakly or less than the wild type.

By UniProt entry, the sequences of proteins in these tests, tags left out.
UniProt P69723: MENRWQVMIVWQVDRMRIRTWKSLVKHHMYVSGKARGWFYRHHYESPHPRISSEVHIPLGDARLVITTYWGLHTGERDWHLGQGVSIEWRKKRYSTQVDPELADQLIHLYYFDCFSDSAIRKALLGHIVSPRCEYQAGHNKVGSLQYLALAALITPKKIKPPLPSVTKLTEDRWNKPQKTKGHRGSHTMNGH
UniProt Q13951: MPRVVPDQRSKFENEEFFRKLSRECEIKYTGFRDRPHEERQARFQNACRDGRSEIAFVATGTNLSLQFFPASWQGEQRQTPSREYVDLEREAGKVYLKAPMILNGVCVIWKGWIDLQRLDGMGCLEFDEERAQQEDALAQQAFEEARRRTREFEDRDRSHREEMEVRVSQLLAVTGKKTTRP

Target: Vif-HA (HIV-1) (UniProt P69723)
Assay: co-IP

For CBFβ-cmyc (from UniProt Q13951 1-182), the binding was “binds”.
